Results as given in US20060141546A1, “Bacterial test method by glycated label binding” (priority 2002, published 2006).
For at least one compound, name, drawing or mass did not settle the structure.

What was measured:
S. faec. = assay: ALP binding to bacteria in presence of carbohydrates, polysaccharides, glycopeptides and lectins (Example 5, Table 3); details: ALP 100 mUnits plus 15 μg of additive
Method: (§1) Bacterial cells (1 to 4.5×10^7 cells/mL) were washed twice with water after centrifugation to separate cells into a packed pellet from the supernatant liquid. The washed cells in pellet form were suspended in 20 μl of EPPS buffer (50 mM at pH 8.0) and 30 μL of water. Hemoglobin (20 μg) was added as a blocking additive. Alkaline phosphatase (ALP) (100 mUnits) from bovine intestine and 15 μg of simple carbohydrates or proteoglycan or lectins, were added.
(§2) The mixture of glycated protein and bacterial cells was left at 25° C. for 15 minutes. The mixture was then centrifuged at 30,000 rpm for 30 minutes after which the bacterial cells formed a pellet at the bottom of the tube and were washed with water 4-5 times (50 μL). Centrifugation allows separation of glycoprotein bound to the bacteria cells from unbound glycated protein(s).
(§3) After washing, the bacterial pellets were suspended in 50 μL of sodium tetraborate buffer (25 mM at pH 9.5). A 5 uL aliquot of the suspension was assayed for detection of ALP binding by adding 5 μL of para-nitrophenol phosphate (PNPP, 100 mM), 50 μL sodium borate buffer (25 mM at pH 9.0) and 140 μL of water. […] The color is read at 405 nm using a ELISA plate reader between 15-30 min and the absorbance is directly proportional to the amount of ALP bound to the bacteria cell adhesions for glycated groups.

bacteria = assay: ALP binding to bacteria in presence of carbohydrates, polysaccharides, glycopeptides and lectins (Example 5); details: 15 μg additive with ALP
Method: as §1, §2, §3

## CC(=O)N[C@H]1[C@H]([C@H](O)[C@H](O)CO)OC(O)(C(=O)O)C[C@@H]1O (some centres unmarked) [Sialic Acid, N-Acetyleneuaminic Acid]
S. faec.
  absorbance (405 nm) of ALP bound to bacteria: 1.7
bacteria
  effect on bacteria binding of ALP (in words): did not produce any effect
